Results are given in words; binding and its absence hold for the method and conditions named. Some binding calls cover weakened binding; strength is not graded here. Where a sequence is shown, tags or fusion partners need not be part of it.
T1: Smc1 with a triple-StrepII tag (S. cerevisiae) (UniProt P32908)
T1 sequence: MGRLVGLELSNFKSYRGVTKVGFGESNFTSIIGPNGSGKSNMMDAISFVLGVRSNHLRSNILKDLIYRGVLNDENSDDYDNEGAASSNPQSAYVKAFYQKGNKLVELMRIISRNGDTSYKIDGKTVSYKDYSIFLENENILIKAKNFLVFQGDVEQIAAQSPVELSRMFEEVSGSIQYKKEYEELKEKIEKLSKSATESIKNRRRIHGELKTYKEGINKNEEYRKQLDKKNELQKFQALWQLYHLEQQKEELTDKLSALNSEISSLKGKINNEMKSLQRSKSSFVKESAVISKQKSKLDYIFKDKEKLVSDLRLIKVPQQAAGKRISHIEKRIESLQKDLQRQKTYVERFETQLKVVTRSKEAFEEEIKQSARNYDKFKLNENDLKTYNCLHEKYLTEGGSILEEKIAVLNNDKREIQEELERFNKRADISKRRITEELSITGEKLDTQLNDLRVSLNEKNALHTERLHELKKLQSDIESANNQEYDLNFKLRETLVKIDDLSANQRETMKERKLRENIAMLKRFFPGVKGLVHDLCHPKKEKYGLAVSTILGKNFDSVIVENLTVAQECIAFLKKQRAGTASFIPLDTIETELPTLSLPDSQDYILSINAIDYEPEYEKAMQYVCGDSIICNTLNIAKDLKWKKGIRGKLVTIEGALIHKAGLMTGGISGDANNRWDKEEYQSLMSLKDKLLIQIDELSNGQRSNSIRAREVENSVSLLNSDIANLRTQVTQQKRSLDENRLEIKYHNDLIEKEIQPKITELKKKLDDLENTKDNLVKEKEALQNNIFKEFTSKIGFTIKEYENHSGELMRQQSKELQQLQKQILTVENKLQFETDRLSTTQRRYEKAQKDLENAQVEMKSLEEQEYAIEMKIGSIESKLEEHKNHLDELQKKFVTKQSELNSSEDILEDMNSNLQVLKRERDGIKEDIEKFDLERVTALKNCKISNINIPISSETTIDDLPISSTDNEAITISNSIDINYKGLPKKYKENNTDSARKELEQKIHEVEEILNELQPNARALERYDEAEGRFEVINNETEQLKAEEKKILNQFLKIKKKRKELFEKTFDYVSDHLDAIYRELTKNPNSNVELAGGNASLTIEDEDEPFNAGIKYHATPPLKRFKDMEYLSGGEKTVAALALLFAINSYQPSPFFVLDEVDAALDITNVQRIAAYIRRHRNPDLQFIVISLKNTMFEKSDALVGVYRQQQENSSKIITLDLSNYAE


Target: T1, Smc1 with a triple-StrepII tag (S. cerevisiae)
Experiment: co-purification (affinity, heparin and gel filtration chromatography); subunits co-overexpressed in S. cerevisiae; clarified lysate on StrepTrap-HP (3xStrepII on Smc1 or Scc2), buffer A 25 mM Hepes pH 7.5, 200 mM NaCl, eluted with 5 mM desthiobiotin; HiTrap Heparin HP gradient 150 mM to 1 M NaCl; Superose 6 Increase in 300 mM NaCl; analysed by SDS-PAGE with Coomassie, Western blot and mass spectrometry

| binding | Binder |
| --- | --- |
| binds | Scc3 (protein, UniProt P40541 1-1150) MTAVRRSTRIRTKSQVIEEDYDDEQNTSAQHVESDKITAKTQHEEEEEQDTGESEESSSEDDYEDQDDDDYVDTATAKRKSRKRKPKSASNTSSKRQKKKPTSAQKSAVSHAPAYHRSKKDQDQYLEIAKDFQPTELFDILSTSEDVSIEELLREWLETYSENRDKFLQEFINLLLNCCGSVARVEDHDVHSNESSNETIGEIQLLFQRQKLHEFYLLISKENKKRKNFKMGPLYQNFAEFMTKLLEVANDLQLLYVESDEDDTQIVTGNLVLDLLTWLSSFSVCKIRCFRYISTLTLYLFQDYLTQQAVNLEKNYLAKLSKQLSLEEKKKRPNNKTLEKLESTIAETQGSKVVIDSIIDNIVKLCFVHRYKDVSDLIRSESMLHLSIWIKNYPEYFLKVTFLKYFGWLLSDNSVSVRLQVTKILPHLIIQNHNSKSTDNSAIRQVFERFKTKILEVAIRDVNLDVRIHSIQVLTEASSLGYLDDSEILIISSLMFDEEFDPFKTSSFNKRSKFLSTVAKFLARVIKEKFDEFIKTHEDLPKEVDGLEVGPVVQVGIFIKILNDSLIYHLKDCAEVDSRTKIRMLTQAAEFLSPYISTHLKTICNLLISDTESNELIQKLQNSANNNSDDEDVDDEELDITPLFPIDRNSTILYLNVFHGLCAGANNPKIQTKDSVKEIVLPLFYDLLNAASIESADILCPLLESFITFSLDDWISIGYETELKKITDKTIKAFMDSTIGNSKVDMKYDIFAKFIHHIHHFEKKELQEKFLNQIATLKIHLKKFLQEKMDPNNSRDDYKDLTCSLYELYINKLTILGRDYPIEVDEELLQLFLNNFVSRIPIMFQDFDDSTAQEINFKMLVLLATWNLEKWREIIEKVRDYENSISKDLRSVWKPIAAIIGRLNTLVISLAATNETFENINSLFYLKWSACTSLMDIIVAIKIFELKLPADATTWRYSMSEQFPFYLHDNASKVLLKIFLYLESLFAKQVDVQLERVADEDANLNDLPETGFFENIETEFLLFTVKLKGLMKLNILDERFASRVALNKEKLGPLFKKIVDDTIMENPEPNKKNIQKAKSNQTQREKAPLQPNSERETDHANTENNDPDIPMTIDLEPIEESSQNNSELAPIEEHPTVVDAIDNSDEITQD |
| binds | Smc3 (protein, UniProt P47037 1-1230) MYIKRVIIKGFKTYRNETIIDNFSPHQNVIIGSNGSGKSNFFAAIRFVLSDDYSNLKREERQGLIHQGSGGSVMSASVEIVFHDPDHSMILPSGVLSRGDDEVTIRRTVGLKKDDYQLNDRNVTKGDIVRMLETAGFSMNNPYNIVPQGKIVALTNAKDKERLQLLEDVVGAKSFEVKLKASLKKMEETEQKKIQINKEMGELNSKLSEMEQERKELEKYNELERNRKIYQFTLYDRELNEVINQMERLDGDYNNTVYSSEQYIQELDKREDMIDQVSKKLSSIEASLKIKNATDLQQAKLRESEISQKLTNVNVKIKDVQQQIESNEEQRNLDSATLKEIKSIIEQRKQKLSKILPRYQELTKEEAMYKLQLASLQQKQRDLILKKGEYARFKSKDERDTWIHSEIEELKSSIQNLNELESQLQMDRTSLRKQYSAIDEEIEELIDSINGPDTKGQLEDFDSELIHLKQKLSESLDTRKELWRKEQKLQTVLETLLSDVNQNQRNVNETMSRSLANGIINVKEITEKLKISPESVFGTLGELIKVNDKYKTCAEVIGGNSLFHIVVDTEETATLIMNELYRMKGGRVTFIPLNRLSLDSDVKFPSNTTTQIQFTPLIKKIKYEPRFEKAVKHVFGKTIVVKDLGQGLKLAKKHKLNAITLDGDRADKRGVLTGGYLDQHKRTRLESLKNLNESRSQHKKILEELDFVRNELNDIDTKIDQVNGNIRKVSNDRESVLTNIEVYRTSLNTKKNEKLILEESLNAIILKLEKLNTNRTFAQEKLNTFENDLLQEFDSELSKEEKERLESLTKEISAAHNKLNITSDALEGITTTIDSLNAELESKLIPQENDLESKMSEVGDAFIFGLQDELKELQLEKESVEKQHENAVLELGTVQREIESLIAEETNNKKLLEKANNQQRLLLKKLDNFQKSVEKTMIKKTTLVTRREELQQRIREIGLLPEDALVNDFSDITSDQLLQRLNDMNTEISGLKNVNKRAFENFKKFNERRKDLAERASELDESKDSIQDLIVKLKQQKVNAVDSTFQKVSENFEAVFERLVPRGTAKLIIHRKNDNANDHDESIDVDMDAESNESQNGKDSEIMYTGVSISVSFNSKQNEQLHVEQLSGGQKTVCAIALILAIQMVDPASFYLFDEIDAALDKQYRTAVATLLKELSKNAQFICTTFRTDMLQVADKFFRVKYENKISTVIEVNREEAIGFIRGSNKFAEV |
| binds | Smc3-K38I (cohesin ATPase mutant) (protein, UniProt P47037 1-1230) MYIKRVIIKGFKTYRNETIIDNFSPHQNVIIGSNGSGISNFFAAIRFVLSDDYSNLKREERQGLIHQGSGGSVMSASVEIVFHDPDHSMILPSGVLSRGDDEVTIRRTVGLKKDDYQLNDRNVTKGDIVRMLETAGFSMNNPYNIVPQGKIVALTNAKDKERLQLLEDVVGAKSFEVKLKASLKKMEETEQKKIQINKEMGELNSKLSEMEQERKELEKYNELERNRKIYQFTLYDRELNEVINQMERLDGDYNNTVYSSEQYIQELDKREDMIDQVSKKLSSIEASLKIKNATDLQQAKLRESEISQKLTNVNVKIKDVQQQIESNEEQRNLDSATLKEIKSIIEQRKQKLSKILPRYQELTKEEAMYKLQLASLQQKQRDLILKKGEYARFKSKDERDTWIHSEIEELKSSIQNLNELESQLQMDRTSLRKQYSAIDEEIEELIDSINGPDTKGQLEDFDSELIHLKQKLSESLDTRKELWRKEQKLQTVLETLLSDVNQNQRNVNETMSRSLANGIINVKEITEKLKISPESVFGTLGELIKVNDKYKTCAEVIGGNSLFHIVVDTEETATLIMNELYRMKGGRVTFIPLNRLSLDSDVKFPSNTTTQIQFTPLIKKIKYEPRFEKAVKHVFGKTIVVKDLGQGLKLAKKHKLNAITLDGDRADKRGVLTGGYLDQHKRTRLESLKNLNESRSQHKKILEELDFVRNELNDIDTKIDQVNGNIRKVSNDRESVLTNIEVYRTSLNTKKNEKLILEESLNAIILKLEKLNTNRTFAQEKLNTFENDLLQEFDSELSKEEKERLESLTKEISAAHNKLNITSDALEGITTTIDSLNAELESKLIPQENDLESKMSEVGDAFIFGLQDELKELQLEKESVEKQHENAVLELGTVQREIESLIAEETNNKKLLEKANNQQRLLLKKLDNFQKSVEKTMIKKTTLVTRREELQQRIREIGLLPEDALVNDFSDITSDQLLQRLNDMNTEISGLKNVNKRAFENFKKFNERRKDLAERASELDESKDSIQDLIVKLKQQKVNAVDSTFQKVSENFEAVFERLVPRGTAKLIIHRKNDNANDHDESIDVDMDAESNESQNGKDSEIMYTGVSISVSFNSKQNEQLHVEQLSGGQKTVCAIALILAIQMVDPASFYLFDEIDAALDKQYRTAVATLLKELSKNAQFICTTFRTDMLQVADKFFRVKYENKISTVIEVNREEAIGFIRGSNKFAEV |
